## Results of single-concentration screens

Amino acid sequences for entries named in this document (tags omitted).
UniProt P9WNZ1, whole entry: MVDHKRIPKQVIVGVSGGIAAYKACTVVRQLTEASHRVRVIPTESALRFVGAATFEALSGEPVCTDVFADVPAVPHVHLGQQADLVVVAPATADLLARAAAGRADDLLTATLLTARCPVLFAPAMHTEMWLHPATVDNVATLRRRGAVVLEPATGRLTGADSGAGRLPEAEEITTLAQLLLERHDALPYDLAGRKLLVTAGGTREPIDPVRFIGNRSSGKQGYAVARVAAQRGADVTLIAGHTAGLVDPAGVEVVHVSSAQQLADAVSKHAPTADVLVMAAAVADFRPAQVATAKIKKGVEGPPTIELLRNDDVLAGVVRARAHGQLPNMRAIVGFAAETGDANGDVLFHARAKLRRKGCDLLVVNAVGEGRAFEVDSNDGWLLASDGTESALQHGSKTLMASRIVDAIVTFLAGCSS

A: 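Cell assay of Leishmania donovani living inside macrophages; the read-out is not stated. Concentration: 30 µM. The record gives no direction; compounds that gave an IC50 in retests scored well above the rest, so higher reads as stronger inhibition. Of about 69,000 compounds tested this way, about 1,000 (1.5%) reached 50% or more in at least one test.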
B: 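Enzyme assay of CoaBC with a phosphate dye (Biomol Green) read at 650 nm. Target: Coenzyme A biosynthesis protein CoaBC, Mycobacterium tuberculosis (UniProt P9WNZ1). Compounds at 30 µM. Higher reads as stronger inhibition, judged from the few compounds that gave an IC50. Most strong results did not repeat in a second test. Of about 67,000 compounds tested this way, about 40 (0.06%) reached 50% or more in at least one test.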

Results are given as percent effect.
The record does not define 0% and 100%; most values in the screen are far below 50% and negative numbers occur (in some assays of this library far below -100).
Compounds were drawn at random from those tested, without regard to their results.
Two or more numbers in one place are separate tests of the same structure; such repeats can differ widely.
A dash means the value is not listed here; it may have been measured.

compound | A | B
Cc1ccc([C@@H]2CN(C(=O)c3cc[nH]c3)C[C@H]2NC(=O)C2CC2)cc1 | 20.38 | 0
CCc1ccc(C(NC(=O)CN(C)S(C)(=O)=O)C(C)(C)C)o1 (stereo unspecified) | 34.01 | -1.587
CN(Cc1ccccc1)CC(O)Cn1cnc2c(cnn2C)c1=O (stereo unspecified) | 13.05 | 6.736
COCCNC(=O)[C@@H](C)[C@@H]1CCc2c(C)cc(OCC(=O)O)c(C)c2C1 | - | 17.49
FCCOc1cccc(NCc2c[nH]nc2-c2cccnc2)c1 | 16.67 | -1.266
COCc1nc2cc(NCc3csc(C)n3)ccc2o1 | 23.19 | 11.9
CN(C)C(=O)[C@H]1C[C@@H]2CCN(C3CCOCC3)C[C@@H]2O1 | - | -4.691
CCN(CC)CCn1cc(NC2CCSCC2)cn1 | 15.59 | -0.2336
Cc1oc(-c2nc(C#N)c(NC3CC3)o2)cc1S(=O)(=O)N1CCCC1 | 1.943 | 2.778
CC1(C)CNC(=O)c2nc(CCN3CCCCC3CO)[nH]c2C1 (stereo unspecified) | -1.437 | 0.7317
COc1cccc(CCNC(=O)CN2CCN(C)CC2C)c1 (stereo unspecified) | -3.604 | 8.769
CN(Cc1cccc(Cl)c1)C(=O)Cn1nc(-c2ccc(F)cc2)oc1=O | 19.09 | 3.659
CCc1cnc(NCCS(=O)(=O)CC(C)C)nc1 | 2.771 | -5.217
Cn1nnc2c1CCN(CC1CC1)C2COCc1ccccc1.O=C(O)C(F)(F)F (stereo unspecified) | 9.684 | -
[H][C@@]12CCN(Cc3ccccn3)C[C@@]1([H])O[C@H](C)C2 | 18.3 | -
[H][C@@]12OCCN(C(=O)c3cccc(C)n3)[C@@]1([H])CC[C@H]2OCCN(C)C | 2.791 | -
COCCn1ccnc1C1CCCN(C(=O)CSc2nnc(C)o2)C1 (stereo unspecified) | -16.03 | -2.138
Cc1cccc(Nc2c(C#N)c(=O)n(C)c(=O)n2C)c1 | 12.85 | -7.725
CC(=O)NCCNC(=O)NCc1ccc(Br)cc1Cl | -17.01 | -0.7371
N#Cc1ccc(CN2CCC(CCc3ccc(O)cc3)CC2)cc1 | -1.874 | -31.91
CCc1c(C)nc(N)nc1N1CCCC(c2nc(CCOC)no2)C1 (stereo unspecified) | 18.32 | 6.743
COc1ccc(OC)c(CN(Cc2ccco2)Cc2[nH]cnc2C)c1 | - | -0.9132
O=S(=O)(NCCCn1cncn1)c1ccc2c(c1)OCCO2 | 10.57 | 0.3501
COCCCS(=O)(=O)N1CCN(Cc2cccn2C)CC1 | -60.32 | -3.808
COc1ccc(C)cc1CN1CCC(c2cc3ncccc3cn2)CC1.Cl | 41.3 | -
CCN1CCOCC12CCN(C(=O)Cc1cccs1)CC2 | - | 0.2049
Cn1cc(-c2ncnc3c2CCN(C(=O)c2cnccn2)CC3)cn1 | 3.912 | -11.11
COc1cccc(COC(C)C(=O)NC2CCN(CC(N)=O)CC2)c1 (stereo unspecified) | -9.812 | 8.058
Cn1cc(CN2CCc3ccc(=O)n(Cc4ccncc4)c3CC2)cn1.O=C(O)C(F)(F)F.O=C(O)C(F)(F)F | 18.02 | -
Cc1n[nH]cc1CNCC(O)c1ccc(F)c(F)c1 (stereo unspecified) | - | 3.175
O=C(c1cnccn1)N1CCCC(Cc2cccc3ncccc23)C1 (stereo unspecified) | 1.874 & 19.18 | 0
Cc1cc(C(=O)N2CCC(C)CC2)ccc1NS(C)(=O)=O | 10.27 | 3.257
O=C(Nc1cccnc1)C1Cc2nc(-c3ccsc3)sc2N1CC1CC1 (stereo unspecified) | - | 3.329
O=C(c1cccnc1N1CCOCC1)N1CCCC(n2cccn2)C1 (stereo unspecified) | 16.67 | 4.348
O=C1CC2(CCN(C(=O)c3cccc(Cl)c3)CC2)CN1 | 2.835 | 4.099
COc1ccc(C[C@H]2CN(C3CCOCC3)CC[C@@H]2OCC2CC2)cc1 | - | 1.272
Cc1n[nH]c(C)c1CN(C)C(C(=O)O)c1c(F)cccc1OC(C)C (stereo unspecified) | 8.002 | 1.098
Cn1c(CNCC2CCCN2c2cccnn2)nc2ccccc21 (stereo unspecified) | 5.982 | 0.2273
COc1ccc(N2Cc3nc(N)ncc3C2=O)cc1 | 8.2 | 0.1266
[H][C@@]12CN(S(=O)(=O)CCC)C[C@]1([H])N(CCc1cccc(Cl)c1)C(=O)O2 | 27.77 | -
COCC(=O)N1CCCC1c1ccc(C(=O)NCCN2CCCCC2)s1 (stereo unspecified) | 8.326 | -19.06
N#Cc1ccc(OC2CCN(C(=O)c3ccccc3Cl)CC2)nc1 | -49.1 | 3.121
O=C(NC1CCCN(CCCc2ccccc2)C1)c1ccncc1 (stereo unspecified) | -30.71 | 2.046
CN(CC(N)=O)Cc1csc(-c2ccc(F)cc2)n1 | 17.14 | 5.34
O=C(CNc1cc(-c2ccccc2)nc2ccnn12)NC1CC1 | 29.28 | 6.725
CCOC(=O)CCNC(=O)N1CCCC(CNC(=O)c2ccco2)C1 (stereo unspecified) | 27.12 | -3.23
COCCNC(=O)Cn1ccc2cccc(OC)c21 | 1.275 | 0.5051
CO[C@@H]1CCN(Cc2ccoc2)C[C@@H]1Cc1ccccc1.O=C(O)C(F)(F)F | 3.825 | -
O=C1CCCN1Cc1ncn2c1CN(C(=O)N1CCCC1)CCC2 | - | -1.728
NC(=O)CN1CCCC1c1ccccc1Br (stereo unspecified) | 0.4448 | 0.9804
C=C(C)COc1ccccc1CN1CCCC(C(=O)NCCCO)C1 (stereo unspecified) | 0.7744 | -1.235
CCOCC1CN(CCOCc2ccccc2)Cc2c1cnn2C (stereo unspecified) | 0.1598 | -28.5

Some entries from above, unchanged:

compound	A	B
CC1(C)CNC(=O)c2nc(CCN3CCCCC3CO)[nH]c2C1 (stereo unspecified)	-1.437	0.7317
COCCNC(=O)Cn1ccc2cccc(OC)c21	1.275	0.5051
O=C(NC1CCCN(CCCc2ccccc2)C1)c1ccncc1 (stereo unspecified)	-30.71	2.046

Data taken from ChEMBL document CHEMBL3988442, “University of Dundee, Small-Polar-MMV Screening Library” (2021).